Results are given in words; binding and its absence hold for the method and conditions named. Some results given as binding are weak or reduced against the parent protein; the word gives no strength.

By UniProt entry, the sequences of proteins in these tests, tags left out. Where a name states a change or a piece, a line headed by the entry shows the natural chain unless it says otherwise. Residues count along the entry.
UniProt P02745: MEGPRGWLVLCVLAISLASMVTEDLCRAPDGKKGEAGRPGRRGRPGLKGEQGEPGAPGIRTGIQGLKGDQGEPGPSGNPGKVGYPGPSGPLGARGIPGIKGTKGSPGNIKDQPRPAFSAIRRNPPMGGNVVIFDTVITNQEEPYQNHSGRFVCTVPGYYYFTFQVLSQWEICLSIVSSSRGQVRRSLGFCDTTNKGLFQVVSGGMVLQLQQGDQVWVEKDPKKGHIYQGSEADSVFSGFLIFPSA
UniProt P04275, residues 764-2813: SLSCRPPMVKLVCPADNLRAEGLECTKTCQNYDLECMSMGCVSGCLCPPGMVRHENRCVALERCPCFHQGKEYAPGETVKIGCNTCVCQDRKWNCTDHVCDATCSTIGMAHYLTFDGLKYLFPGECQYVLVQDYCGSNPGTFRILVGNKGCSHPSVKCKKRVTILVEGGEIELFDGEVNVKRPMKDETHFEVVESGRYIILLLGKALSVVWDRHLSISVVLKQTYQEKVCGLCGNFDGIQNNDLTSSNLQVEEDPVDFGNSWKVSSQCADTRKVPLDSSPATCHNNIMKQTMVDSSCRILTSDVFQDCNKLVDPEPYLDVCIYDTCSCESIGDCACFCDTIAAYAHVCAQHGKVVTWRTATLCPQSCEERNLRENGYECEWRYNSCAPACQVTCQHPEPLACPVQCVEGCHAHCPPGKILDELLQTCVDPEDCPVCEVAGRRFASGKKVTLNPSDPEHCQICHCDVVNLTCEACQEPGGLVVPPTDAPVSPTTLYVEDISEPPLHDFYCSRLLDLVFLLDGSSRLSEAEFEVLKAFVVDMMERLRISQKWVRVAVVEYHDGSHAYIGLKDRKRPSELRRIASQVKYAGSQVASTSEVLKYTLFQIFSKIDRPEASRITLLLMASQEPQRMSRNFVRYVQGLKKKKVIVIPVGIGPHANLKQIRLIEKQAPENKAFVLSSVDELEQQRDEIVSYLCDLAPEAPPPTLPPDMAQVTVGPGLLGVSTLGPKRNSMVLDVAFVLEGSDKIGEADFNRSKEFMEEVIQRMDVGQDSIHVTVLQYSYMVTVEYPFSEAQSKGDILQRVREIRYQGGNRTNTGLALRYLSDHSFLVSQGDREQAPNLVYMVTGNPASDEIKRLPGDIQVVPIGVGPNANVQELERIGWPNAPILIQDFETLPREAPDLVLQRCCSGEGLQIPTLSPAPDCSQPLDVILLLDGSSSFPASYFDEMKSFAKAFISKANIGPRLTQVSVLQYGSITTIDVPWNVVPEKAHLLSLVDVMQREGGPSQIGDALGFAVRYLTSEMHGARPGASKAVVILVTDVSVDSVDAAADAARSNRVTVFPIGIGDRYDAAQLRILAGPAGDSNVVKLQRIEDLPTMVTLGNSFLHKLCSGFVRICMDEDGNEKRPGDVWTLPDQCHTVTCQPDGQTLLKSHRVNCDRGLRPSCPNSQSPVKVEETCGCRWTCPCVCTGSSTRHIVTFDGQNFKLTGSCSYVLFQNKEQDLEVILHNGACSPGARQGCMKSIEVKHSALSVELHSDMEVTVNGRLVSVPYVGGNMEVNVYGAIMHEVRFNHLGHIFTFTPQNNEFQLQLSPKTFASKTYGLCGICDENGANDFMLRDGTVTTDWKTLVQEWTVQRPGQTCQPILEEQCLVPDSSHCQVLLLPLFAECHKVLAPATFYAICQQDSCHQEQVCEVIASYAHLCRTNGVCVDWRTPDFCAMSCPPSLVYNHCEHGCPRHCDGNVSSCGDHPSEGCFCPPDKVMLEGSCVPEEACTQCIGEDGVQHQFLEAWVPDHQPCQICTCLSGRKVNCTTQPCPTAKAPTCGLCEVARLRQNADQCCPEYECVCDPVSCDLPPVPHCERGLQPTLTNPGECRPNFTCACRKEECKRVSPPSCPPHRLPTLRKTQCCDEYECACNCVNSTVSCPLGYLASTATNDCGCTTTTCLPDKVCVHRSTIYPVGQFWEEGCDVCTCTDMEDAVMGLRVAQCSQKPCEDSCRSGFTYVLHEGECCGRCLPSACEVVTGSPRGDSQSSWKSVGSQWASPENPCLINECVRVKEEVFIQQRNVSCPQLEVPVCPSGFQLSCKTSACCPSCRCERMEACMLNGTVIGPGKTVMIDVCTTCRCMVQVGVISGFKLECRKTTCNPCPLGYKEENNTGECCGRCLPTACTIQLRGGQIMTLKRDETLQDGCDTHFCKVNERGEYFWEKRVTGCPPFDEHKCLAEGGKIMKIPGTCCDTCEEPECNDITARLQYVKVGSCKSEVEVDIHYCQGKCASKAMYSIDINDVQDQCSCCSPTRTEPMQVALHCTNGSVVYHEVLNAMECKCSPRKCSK

Experiment [1] deals with Complement C1q (UniProt P02745). The experiment can be described thus: imaging flow cytometry of stained cholesterol crystals; CC-C1q-vWF complexes made as for flow cytometry, stained for C1q and vWF; ImageStreamX Mark II; both purified.
Experiment [2] has the same target. The experiment is described as follows: confocal microscopy of stained cholesterol crystals; CC-C1q-vWF complexes made as for flow cytometry, stained for C1q and vWF, spun onto cytoslides; Nikon A1R; both purified. On the technique in general: Flow cytometry measures light scatter and fluorescence of single cells or particles in a stream.

With “von Willebrand factor (from UniProt P04275 764-2813)”, the binding entry with Complement C1q [1] and with Complement C1q [2] was “binds” in each case.

The record behind these values is article PMC6881245.
